Data from PubChem BioAssay AID1487 (National Center for Advancing Translational Sciences (NCATS), 2009).
This is one part of the list. The main result of the screen is listed elsewhere. These columns were measured beside it and carry no call. The list favours compounds with an active or inconclusive main result. The note in brackets gives the kind of curve behind each potency; many fits are weak.

Assay: qHTS Assay for Modulators of Lamin A Splicing
Details: HeLa LMNA splicing GFP/RFP minigene ratio, 48 h
In short: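 S3 HeLa cells stably expressing lamin A-EGFP splicing minigene plus DsRed2, 600 cells/well, 48 h compound exposure at 37C. Laser-scanning cytometry; analysed as GFP (500-530 nm)/RFP (575-640 nm) total intensity ratio; 0.5% DMSO vehicle.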

[1] = measured here: RFP viability control channel
[2] = measured here: GFP splicing reporter channel

| SMILES | AC50 [1] | AC50 [2] |
| --- | --- | --- |
| O=C(c1ccc2c(c1)CCCC2)N1CCN(c2nc3ccc(F)cc3s2)CC1 | 0.178 µM [rising, full curve, poor fit] |  |
| ClCc1cc2ccccc2nc1Cl |  | 0.0794 µM [falling, full curve] |
| Cc1ccc(N(CC(=O)Nc2ccc3c(c2)OCCO3)S(=O)(=O)c2c(C)noc2C)cc1 | 14.1 µM [rising, single point] |  |
| CCN(CC)C(=S)SCC(=O)Nc1nc(=O)c2ccccc2s1 | 0.158 µM [falling, partial curve, poor fit] |  |
| CNC1=C(N(C(C)=O)c2ccc(Br)cc2)C(=O)c2ccccc2C1=O | 10 µM [falling, partial curve, poor fit] | 6.31 µM [falling, full curve, poor fit] |
| COc1ccc(S(=O)(=O)N2CCN(CCO)CC2)cc1-c1nnc2c3ccccc3c(C)nn12 | 35.5 µM [rising, single point] | 14.1 µM [rising, single point] |
| CC1(C)C=C2[C@H]3CC[C@@H]4[C@@]5(C)CCC(=O)C(C)(C)[C@@H]5CC[C@@]4(C)[C@]3(C)CC[C@@]2(C(=O)O)CC1 | 0.0112 µM [falling, full curve, poor fit] |  |
| O=C(CSC1=N/C(=C/c2ccc(Cl)c(Cl)c2)C(=O)N1c1ccccc1F)NC1CC1 | 20 µM [rising, single point] | 10 µM [rising, single point] |
| COc1ccc(/C=N/NC(=O)c2[nH]c3ccc(Br)cc3c2-c2ccccc2)cc1 | 0.794 µM [rising, full curve] | 0.708 µM [rising, full curve] |
| COc1ccc(CC(=O)Nc2cc(-c3nc4cccnc4s3)ccc2C)cc1 |  | 14.1 µM [rising, single point] |
| COc1cccc(-c2nc(NC(C)(C)C)c3ccccc3n2)c1O | 20 µM [rising, single point] | 31.6 µM [rising, single point] |
| O=S(=O)(Nc1cc(C(F)(F)F)ccc1N1CCOCC1)c1ccccc1 |  | 0.126 µM [rising, full curve, poor fit] |
| Cc1cccc(NC(=S)N/N=C/c2ccc([N+](=O)[O-])s2)c1 | 35.5 µM [falling, single point] |  |
| CSc1nc2ccc(Nc3nc(N4CCOCC4)nc(N4CCOCC4)n3)cc2s1 | 22.4 µM [rising, single point] | 35.5 µM [rising, single point] |
| C/C(=N\NC(=S)Nc1cccc(C)c1)c1cc2ccccc2o1 | 2.24 µM [rising, full curve, poor fit] |  |

Arranged by length of the SMILES (rising): part of the list above

| SMILES | AC50 [1] | AC50 [2] |
| --- | --- | --- |
| C/C(=N\NC(=S)Nc1cccc(C)c1)c1cc2ccccc2o1 | 2.24 µM [rising, full curve, poor fit] |  |
| O=S(=O)(Nc1cc(C(F)(F)F)ccc1N1CCOCC1)c1ccccc1 |  | 0.126 µM [rising, full curve, poor fit] |
| O=C(CSC1=N/C(=C/c2ccc(Cl)c(Cl)c2)C(=O)N1c1ccccc1F)NC1CC1 | 20 µM [rising, single point] | 10 µM [rising, single point] |
